Construct, isoform or probe ends are uncertain for at least one entry. At least one result comes from cells or an extract, where the contact may be indirect.
Target: FLAG-TCF4 (UniProt Q9NQB0)
Test: EMSA supershift
Conditions: anti-FLAG, LightShift chemiluminescent EMSA kit binding buffer (composition and pH not given), 4 ug HEK293T nuclear extract, 30 min at room temperature, then 30 min with anti-FLAG, protein in an extract, protein details: FLAG

Protein sequences, listed by entry. Tags and fused reporters are not part of them. Lines headed by an entry give the natural chain unless they say otherwise; changes in a name come on top.
UniProt Q9NQB0: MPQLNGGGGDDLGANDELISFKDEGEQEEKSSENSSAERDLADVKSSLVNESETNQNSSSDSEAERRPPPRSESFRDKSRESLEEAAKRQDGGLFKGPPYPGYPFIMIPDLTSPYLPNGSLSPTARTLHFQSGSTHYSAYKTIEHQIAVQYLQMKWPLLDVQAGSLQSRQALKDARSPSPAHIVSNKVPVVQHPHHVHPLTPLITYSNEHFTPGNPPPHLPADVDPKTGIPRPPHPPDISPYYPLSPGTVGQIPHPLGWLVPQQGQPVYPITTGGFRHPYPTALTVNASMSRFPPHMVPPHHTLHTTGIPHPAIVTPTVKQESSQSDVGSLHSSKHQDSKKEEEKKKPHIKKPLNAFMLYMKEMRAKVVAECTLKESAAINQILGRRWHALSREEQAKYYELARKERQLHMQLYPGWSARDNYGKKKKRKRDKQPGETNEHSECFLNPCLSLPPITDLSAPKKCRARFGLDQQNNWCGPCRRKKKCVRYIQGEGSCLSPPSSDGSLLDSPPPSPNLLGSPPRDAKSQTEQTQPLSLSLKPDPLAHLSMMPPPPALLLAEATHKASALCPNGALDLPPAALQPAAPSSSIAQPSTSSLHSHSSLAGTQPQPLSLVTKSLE

AGAGTTATATACTGCTTTGATTTGCT (double strand) [EZH2-WT probe]
binding result (HA-HBP1 delRepression co-expressed (no effect on supershift)): binds | binding result (HEK293T nuclear extract 4 ug): binds

From article PMC4933444
